According to article PMC8368726, “Granzyme A Produced by γ9δ2 T Cells Activates ER Stress Responses and ATP Production, and Protects Against Intracellular Mycobacterial Replication Independent of Enzymatic Activity” (Frontiers in Immunology, 2021):
These are yes or no findings as the source states them, for the method shown.

Target: Native human Granzyme A (human) (UniProt P12544)
Test: reducing SDS gel electrophoresis (silver stain and western blot); purified GzmA run under reducing conditions; both purified

B1: Native human Granzyme A (enzyme, UniProt P12544 29-262, looked up)
chain: IIGGNEVTPHSRPYMVLLSLDRKTICAGALIAKDWVLTAAHCNLNKRSQVILGAHSITREEPTKQIMLVKKEFPYPCYDPATREGDLKLLQLMEKAKINKYVTILHLPKKGDDVKPGTMCQVAGWGRTHNSASWSDTLREVNITIIDRKVCNDRNHYNFNPVIGMNMVCAGSLRGGRDSCNGDSGSPLLCEGVFRGVTSFGLENKCGDPRGPGVYILLSKKHLNWIIMTIKGAV
notes: Granzyme A (GzmA), native human protein, commercially obtained; Some monomer at ~25 kDa is seen beside the homodimer; also called NhGzmA; native GzmA; source: bought: TheraTest (Lombard, IL)
With B1 the binding was “no binding (condition: under reducing conditions)”.
